# From article PMC9459147
# By UniProt entry, the sequences of proteins in these tests, tags left out. Residues count along the entry.
# UniProt Q3TTA7: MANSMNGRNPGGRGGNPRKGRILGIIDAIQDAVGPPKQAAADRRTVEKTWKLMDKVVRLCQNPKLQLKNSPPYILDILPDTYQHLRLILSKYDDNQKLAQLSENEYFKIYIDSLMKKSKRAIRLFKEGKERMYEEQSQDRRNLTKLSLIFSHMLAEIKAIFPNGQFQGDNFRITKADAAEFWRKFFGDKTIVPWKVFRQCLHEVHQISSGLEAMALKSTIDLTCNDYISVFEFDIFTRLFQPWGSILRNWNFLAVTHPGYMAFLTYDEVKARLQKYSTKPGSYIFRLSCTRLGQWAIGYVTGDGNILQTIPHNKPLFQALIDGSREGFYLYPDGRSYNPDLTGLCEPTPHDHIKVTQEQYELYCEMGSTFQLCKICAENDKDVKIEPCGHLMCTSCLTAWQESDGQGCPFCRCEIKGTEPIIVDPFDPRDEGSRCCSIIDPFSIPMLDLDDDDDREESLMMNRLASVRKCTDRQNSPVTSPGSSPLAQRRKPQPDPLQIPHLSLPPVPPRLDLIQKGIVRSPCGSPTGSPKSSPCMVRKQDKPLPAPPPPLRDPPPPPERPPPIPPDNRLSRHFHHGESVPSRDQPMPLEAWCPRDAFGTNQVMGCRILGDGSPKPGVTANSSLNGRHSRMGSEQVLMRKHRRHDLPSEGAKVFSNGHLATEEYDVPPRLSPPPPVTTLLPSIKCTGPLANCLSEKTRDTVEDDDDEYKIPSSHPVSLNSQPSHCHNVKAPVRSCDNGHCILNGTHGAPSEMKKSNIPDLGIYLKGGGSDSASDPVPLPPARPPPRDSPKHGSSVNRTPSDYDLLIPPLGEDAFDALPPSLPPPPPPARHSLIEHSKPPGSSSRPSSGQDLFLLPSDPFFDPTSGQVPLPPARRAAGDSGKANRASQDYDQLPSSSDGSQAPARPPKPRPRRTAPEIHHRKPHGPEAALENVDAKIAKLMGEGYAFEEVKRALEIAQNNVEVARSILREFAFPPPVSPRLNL
# UniProt Q01705, residues 19-2531: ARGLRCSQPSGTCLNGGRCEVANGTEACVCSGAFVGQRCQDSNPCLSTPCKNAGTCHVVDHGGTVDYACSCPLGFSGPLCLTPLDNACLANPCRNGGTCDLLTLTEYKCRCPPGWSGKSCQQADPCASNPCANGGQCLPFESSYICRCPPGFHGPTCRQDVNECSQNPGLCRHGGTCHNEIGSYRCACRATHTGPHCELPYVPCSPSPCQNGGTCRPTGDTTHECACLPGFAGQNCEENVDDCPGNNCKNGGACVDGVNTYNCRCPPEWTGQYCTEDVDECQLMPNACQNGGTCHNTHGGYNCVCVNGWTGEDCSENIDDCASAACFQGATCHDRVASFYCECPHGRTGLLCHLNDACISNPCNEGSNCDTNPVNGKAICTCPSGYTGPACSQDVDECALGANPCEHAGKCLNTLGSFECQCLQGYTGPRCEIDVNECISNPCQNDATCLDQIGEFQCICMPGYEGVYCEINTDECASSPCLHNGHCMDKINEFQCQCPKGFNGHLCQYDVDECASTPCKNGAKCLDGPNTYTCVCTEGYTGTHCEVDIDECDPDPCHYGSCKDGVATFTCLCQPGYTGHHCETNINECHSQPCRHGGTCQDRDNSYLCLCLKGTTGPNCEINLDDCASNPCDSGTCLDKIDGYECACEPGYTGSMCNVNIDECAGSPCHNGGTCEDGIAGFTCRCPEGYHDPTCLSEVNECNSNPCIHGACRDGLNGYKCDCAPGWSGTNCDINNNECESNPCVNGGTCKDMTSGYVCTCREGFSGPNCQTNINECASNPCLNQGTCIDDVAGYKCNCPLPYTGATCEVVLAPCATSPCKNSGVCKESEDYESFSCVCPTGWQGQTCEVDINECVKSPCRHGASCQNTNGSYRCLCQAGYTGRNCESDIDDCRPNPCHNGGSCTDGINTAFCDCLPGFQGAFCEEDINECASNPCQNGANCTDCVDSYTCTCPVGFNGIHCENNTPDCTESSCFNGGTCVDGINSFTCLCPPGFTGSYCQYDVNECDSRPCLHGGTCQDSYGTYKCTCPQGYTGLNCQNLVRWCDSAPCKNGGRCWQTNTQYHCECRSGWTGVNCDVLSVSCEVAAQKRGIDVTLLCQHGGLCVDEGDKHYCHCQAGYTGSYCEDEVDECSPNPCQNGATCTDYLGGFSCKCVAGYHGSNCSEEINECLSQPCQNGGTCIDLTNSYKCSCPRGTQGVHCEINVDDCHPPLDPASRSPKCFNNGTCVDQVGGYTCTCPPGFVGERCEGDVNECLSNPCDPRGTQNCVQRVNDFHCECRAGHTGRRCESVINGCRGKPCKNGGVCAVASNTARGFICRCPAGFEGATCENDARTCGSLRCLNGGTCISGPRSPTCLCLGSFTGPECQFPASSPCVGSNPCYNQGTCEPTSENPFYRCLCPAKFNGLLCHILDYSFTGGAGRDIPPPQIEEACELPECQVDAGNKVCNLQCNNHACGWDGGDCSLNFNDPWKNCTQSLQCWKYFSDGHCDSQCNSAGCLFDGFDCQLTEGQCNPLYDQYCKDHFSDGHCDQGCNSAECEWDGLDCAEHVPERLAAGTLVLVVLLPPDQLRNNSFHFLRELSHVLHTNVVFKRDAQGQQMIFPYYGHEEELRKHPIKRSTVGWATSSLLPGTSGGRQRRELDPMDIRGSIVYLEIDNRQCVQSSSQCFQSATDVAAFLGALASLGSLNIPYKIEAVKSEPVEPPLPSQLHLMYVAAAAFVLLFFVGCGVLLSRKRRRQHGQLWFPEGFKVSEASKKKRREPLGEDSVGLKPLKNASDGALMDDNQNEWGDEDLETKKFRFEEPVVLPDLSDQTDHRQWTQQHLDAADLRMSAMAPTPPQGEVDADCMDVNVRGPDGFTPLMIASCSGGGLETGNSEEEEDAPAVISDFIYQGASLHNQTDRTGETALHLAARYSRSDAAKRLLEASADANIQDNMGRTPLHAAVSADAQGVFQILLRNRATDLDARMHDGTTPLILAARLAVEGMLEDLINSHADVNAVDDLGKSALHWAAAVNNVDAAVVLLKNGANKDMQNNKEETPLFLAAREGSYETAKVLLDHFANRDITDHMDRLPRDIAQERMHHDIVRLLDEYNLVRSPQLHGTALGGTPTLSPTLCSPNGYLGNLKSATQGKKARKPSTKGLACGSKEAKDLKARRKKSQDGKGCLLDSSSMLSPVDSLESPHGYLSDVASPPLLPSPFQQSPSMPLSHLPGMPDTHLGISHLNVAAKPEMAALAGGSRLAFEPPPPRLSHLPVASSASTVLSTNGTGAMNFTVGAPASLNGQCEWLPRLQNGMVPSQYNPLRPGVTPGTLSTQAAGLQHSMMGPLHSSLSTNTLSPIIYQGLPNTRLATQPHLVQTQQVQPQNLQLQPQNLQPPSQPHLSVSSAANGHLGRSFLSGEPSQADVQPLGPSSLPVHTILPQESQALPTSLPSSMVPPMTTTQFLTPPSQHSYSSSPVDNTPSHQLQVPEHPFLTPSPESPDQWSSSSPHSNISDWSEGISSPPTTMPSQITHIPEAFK
# UniProt Q8BGG7: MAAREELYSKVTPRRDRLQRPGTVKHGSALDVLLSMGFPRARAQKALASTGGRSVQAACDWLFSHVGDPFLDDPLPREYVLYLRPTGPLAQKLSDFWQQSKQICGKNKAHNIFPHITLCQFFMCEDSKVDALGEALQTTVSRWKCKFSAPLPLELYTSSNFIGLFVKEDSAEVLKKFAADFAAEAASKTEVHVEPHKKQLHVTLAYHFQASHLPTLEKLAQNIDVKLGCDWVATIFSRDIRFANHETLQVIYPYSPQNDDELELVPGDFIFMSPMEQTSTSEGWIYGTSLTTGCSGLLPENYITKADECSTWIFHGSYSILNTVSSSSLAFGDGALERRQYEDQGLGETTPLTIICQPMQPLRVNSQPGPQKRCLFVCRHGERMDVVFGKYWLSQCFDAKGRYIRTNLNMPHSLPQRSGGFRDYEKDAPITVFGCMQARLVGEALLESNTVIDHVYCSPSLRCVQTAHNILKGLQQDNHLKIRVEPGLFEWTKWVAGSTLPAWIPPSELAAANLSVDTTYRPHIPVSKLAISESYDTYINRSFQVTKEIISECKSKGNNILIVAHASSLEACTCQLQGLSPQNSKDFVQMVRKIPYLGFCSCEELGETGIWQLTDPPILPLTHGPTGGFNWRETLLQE
# No constants are given. Whether binding was seen depends on the method and setting. Binding seen in cells or lysates may run through a third protein. Some results given as binding are weak or reduced against the parent protein; the word gives no strength.
# Target: Casitas B-lineage lymphoma b (Cbl-b), endogenous (mouse (endogenous in primary CD8+ T-cells)) (UniProt Q3TTA7)
# Assay: co-IP; endogenous proteins; lysate of primary activated mouse CD8+ T-cells (Pierce IP lysis buffer); Cbl-b immunoprecipitated (anti-Cbl-b G1, Protein A/G magnetic beads), Notch1 and STS-1 co-detected by blot; beads without antibody as negative control (Supplementary Figure 3)
row,Substance,binding
1,"Notch1 (endogenous, primary mouse CD8+ T-cells) (from UniProt Q01705 19-2531) (receptor)",binds
2,"Suppressor of T-cell receptor signaling 1 (STS-1), endogenous (from UniProt Q8BGG7 1-638) (enzyme)",binds
